Experimental data published in article PMC11996864, “A small-molecule inhibitor of BCL10-MALT1 interaction abrogates progression of diffuse large B cell lymphoma” (The Journal of Clinical Investigation, 2025).

Target: T1, Myc-tagged BCL10 (UniProt O95999)
T1 sequence: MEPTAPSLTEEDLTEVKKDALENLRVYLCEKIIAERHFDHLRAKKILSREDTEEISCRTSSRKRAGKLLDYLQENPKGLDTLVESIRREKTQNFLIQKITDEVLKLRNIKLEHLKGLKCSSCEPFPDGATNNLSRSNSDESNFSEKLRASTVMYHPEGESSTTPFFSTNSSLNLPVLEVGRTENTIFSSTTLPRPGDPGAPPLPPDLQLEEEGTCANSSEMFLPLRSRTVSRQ
Experiment: co-IP; HA-tagged MALT1 proteins or fragments with Myc-tagged BCL10 (or Myc-tagged RICK, MAVS), expressed in transiently transfected 293T cells

Substance	binding
HA-tagged MALT1(Ig1-2+CTD) (domain or fragment)	binds
HA-tagged MALT1(DD+Ig1-2) (domain or fragment)	binds

These are yes or no findings as the source states them, for the method shown. In cells and extracts the contact can be indirect. Binding calls can cover weak binding; strength is not graded here. Tags and fused reporters may be left off the sequences shown.
